# Source: PubChem BioAssay AID1688 (National Center for Advancing Translational Sciences (NCATS), 2009)
# Screen size: about 220,000 compounds; about 2,400 (1.1%) were called active. The inconclusive results got no clear call from the source; some entries with a clear call stand among them for comparison. Calls come from the whole dose curve; as a rule, active = well fitted inhibition curve with a large enough effect; inconclusive = small, poorly fitted or top-dose-only effect, or effect the other way; inactive = no such curve, though single readings can be large or run the other way. Where the call is inconclusive, the potency comes from a doubtful curve fit.
# Assay: qHTS Multiplex Assay to Identify Dual Action Probes in a Cell Model of Huntington: Aggregate Formation (GFP); note: nearly all actives have a fitted effect of over 60% in size
# Conditions: PC12 HttQ103-GFP aggregates, Acumen cytometry, 40 h; activity change, negative = inhibition: at 46.1 µM (top of the series) unless noted
# Method in brief: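 Inducible Q103 Huntingtin exon 1–GFP PC12 line, 1500 cells/well in phenol red free DMEM with 5% equine and 5% calf serum. Tebufenozide 100 nM induced expression; compounds titrated; aggregates quantified by cytometry.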
# % is set by controls: 0 for no effect and ±100 for the full control effect; potency is the fitted concentration of half-maximal effect.
SMILES,Potency,"activity change, negative = inhibition"
COc1ccc(Cl)c2c1[nH]c1nc(SCc3ccccn3)nnc12,"inconclusive: 35.5 µM [inhibitor, single point]",–
CCOCC(=O)Nc1cccc(NC(C)=O)c1,–,inactive: -0.473%
O=C(Nc1ccc(N=Nc2ccccc2)c(NC(=O)C2CCCO2)c1)C1CCCO1 (stereo not drawn),"inconclusive: 3.98 µM [inhibitor, full curve, poor fit]",–
CCCc1nc2oc3c(NCCOCCO)ncnc3c2c2c1COC(C)(C)C2,–,inactive: -18.3%
CC(C)(C)c1cc(NC(=O)COC(=O)c2ccc3c(=O)n4c(nc3c2)CCC4)n(-c2ccccc2)n1,–,inactive: 5.23%
Cc1cccc(OCC(=O)Nc2cc(C)ccc2O)c1,"inconclusive: 12.6 µM [activator, single point]",–
CCOC(=O)c1c(=O)n(O)c2ccc(C)cc2[n+]1[O-],–,inactive: -4.77%
CCOC(C)=O,–,inactive: 4.56%
Cc1ccc(C(=O)OCC(=O)NCCN2C(=O)CSC2=O)cc1,"inconclusive: 0.501 µM [inhibitor, partial curve]",–
CC1=C(C(=O)OCc2ccc3c(c2)OCO3)C(c2ccc(O)c([N+](=O)[O-])c2)NC(=O)N1 (stereo not drawn),active: 7.08 µM,–
Cn1nnnc1SCC(=O)NCc1ccco1,"inconclusive: 35.5 µM [inhibitor, single point]",–
O=C(CN1CCCCCC1)NCc1ccccc1,–,inactive: 6.55%
Cc1ccc(N2C(=O)CC(Sc3ccccc3C(=O)O)C2=O)cc1 (stereo not drawn),–,inactive: 3.96%
CN(C)c1nc(N(C)C)n(Cc2c(Cl)cccc2Cl)n1,"inconclusive: 1.78 µM [activator, partial curve]",–
Cc1ccc(S(=O)(=O)N2c3ccccc3NC(=O)CC2C)cc1 (stereo not drawn),–,inactive: -13.7%
O=C(/C=C/c1ccc([N+](=O)[O-])s1)N1CCCC1,"inconclusive: 35.5 µM [inhibitor, single point]",–
CC1CC(N(C(=O)c2ccccc2Cl)c2ccccc2)c2ccccc2N1 (stereo not drawn),"inconclusive: 14.1 µM [inhibitor, single point]",–
CC(=O)N/N=C/c1ccc([N+](=O)[O-])o1,active: 31.6 µM,–
Cc1ccc(NCC(=O)N/N=C\c2ccc([N+](=O)[O-])o2)cc1,"inconclusive: 35.5 µM [inhibitor, single point]",–
Cc1cc(OCc2nc3ccccc3s2)ccc1N,"inconclusive: 6.31 µM [inhibitor, single point]",–
CC(C)CC(=O)Nc1ccc(-c2cn3ccsc3n2)cc1,"inconclusive: 12.6 µM [inhibitor, single point]",–
CCCCn1c(=O)c(C(=O)N/N=C/c2ccc(F)cc2)c(O)c2ccccc21,"inconclusive: 3.98 µM [inhibitor, single point]",–
COc1cc(/C=N/NC(N)=S)cc(Br)c1OCc1ccccc1F,–,inactive: -2.16%
Cc1ccc(C)c(NC(=O)C2CCC(C)(C(=O)O)C2(C)C)c1 (stereo not drawn),"inconclusive: 35.5 µM [inhibitor, single point]",–
CCCN(CCC)S(=O)(=O)c1ccc(C(=O)Nc2nnc(-c3cccc(OC)c3)o2)cc1,active: 10 µM,–

SMILES,Potency,"activity change, negative = inhibition"
O=C(Nc1nnc(SCc2ccc(F)cc2)s1)c1ccccn1,"inconclusive: 5.62 µM [inhibitor, single point]",–
Cc1cccc(C(=O)c2c(N)sc3c2CCCC3)c1,–,inactive: 5.19%
Cc1nn(Cc2ccccc2)c(C)c1C(=O)OCC(=O)c1cc(C)n(C2CC2)c1C,"inconclusive: 11.2 µM [inhibitor, partial curve]",–
CCOC(=O)C1=C(C)NC(C)=C(C(=O)OCC)C1C(=O)OCC(N)=O,"inconclusive: 10 µM [activator, partial curve]",–
COc1ccc(OC)c(/C=N/NC(=O)CCc2ccc(O)c(O)c2)c1,"inconclusive: 15.8 µM [activator, single point]",–
O=C1c2[nH]nc(-c3ccccc3O)c2C(c2ccc(F)cc2)N1Cc1ccco1 (stereo not drawn),"inconclusive: 31.6 µM [inhibitor, single point]",–
CC(C)NC(=O)CN1C(=O)c2ccccc2S1(=O)=O,–,inactive: 12.6% [at 9.22 µM]
COC1=C(Nc2ccc(C)cc2)C(=O)c2ccccc2C1=O,"inconclusive: 3.55 µM [inhibitor, partial curve]",–
COc1ccc(S(=O)(=O)NC(CC(=O)NCc2ccco2)c2ccco2)cc1 (stereo not drawn),–,inactive: -2.32%
COc1ccccc1/C=N/OCC(=O)NCc1ccc2c(c1)OCO2,"inconclusive: 1.78 µM [inhibitor, partial curve]",–
Cc1c(CNC(=O)c2nn3c(c2Cl)NC(c2ccccc2)CC3C(F)(F)F)cnn1C (stereo not drawn),"inconclusive: 12.6 µM [inhibitor, partial curve]",–
COC(=O)C1=C(C)NC2=C(C(=O)c3ccccc32)C1c1cccc(OC)c1 (stereo not drawn),–,inactive: 4.8% [at 9.22 µM]
COc1ccc(CC(=O)Nc2cccc(-c3nnc(-c4ccccc4)o3)c2)cc1OC,active: 22.4 µM,–
Cc1ccc2c(c1)N(CC(=O)NC1CCCCC1C)C(=O)CO2 (stereo not drawn),"inconclusive: 14.1 µM [inhibitor, single point]",–
O=[N+]([O-])c1cc(Cl)ccc1NCCNS(=O)(=O)c1ccccc1,"inconclusive: 11.2 µM [inhibitor, partial curve]",–
Cc1cc(C(=O)Nc2ncc(C)s2)c2ccccc2n1,–,inactive: -5.77%
COc1ccc(N2CCN(C(CNS(=O)(=O)c3ccc4c(c3)OCCO4)c3ccco3)CC2)cc1 (stereo not drawn),"inconclusive: 0.501 µM [inhibitor, partial curve, poor fit]",–
CC1=C(C(=O)N2CCCCC2)C2(CCC(C)CC2)OC1=O (stereo not drawn),"inconclusive: 0.562 µM [activator, full curve, poor fit]",–
Cc1cc(C(F)(F)F)n(-c2nc(C(=O)N/N=C/c3ccc(F)cc3)cs2)n1,"inconclusive: 1.26 µM [inhibitor, single point]",–
NC(=O)c1nc(N2CCOCC2)nc(N2CCOCC2)n1,"inconclusive: 6.31 µM [inhibitor, single point]",–
O=C(CCCOc1ccc(Cl)cc1)N1CCCCCC1,"inconclusive: 0.501 µM [activator, partial curve]",–
O=C(CSc1nc2ccc([N+](=O)[O-])cc2[nH]1)NC1CCCC1,"inconclusive: 10 µM [inhibitor, partial curve]",–
COc1cccc(/C=N/NC(=O)C(=O)N/N=C/c2cccc(OC)c2O)c1O,"inconclusive: 35.5 µM [inhibitor, single point]",–
Oc1c(I)cc(Cl)c2cccnc12,active: 10 µM,–
CCCN1C(=O)/C(=C/c2ccc(N3CCCC3)c(C)c2)NC1=S,active: 12.6 µM,–

SMILES,Potency,"activity change, negative = inhibition"
Cc1cccn2c(=O)c3cc(C#N)c(=O)n(CC4CCCO4)c3nc12 (stereo not drawn),–,inactive: 0.674%
Nc1ccc(Nc2ccccc2)cc1,"inconclusive: 3.98 µM [activator, single point]",–
Cc1c(C(=O)O)nnn1-c1ccccc1,"inconclusive: 12.6 µM [activator, single point]",–
CCCCSCCCNC(=S)Nc1ccccc1C,active: 22.4 µM,–
COc1cc(OC)c(OC)cc1CN1CCN(c2ccccc2OC)CC1,"inconclusive: 0.794 µM [inhibitor, single point]",–
c1ccc2c(c1)oc1c(NCc3ccc4c(c3)OCO4)ncnc12,active: 11.2 µM,–
CC(C)(C)c1ccc(NC(=O)Nc2ccc(OCC(=O)N3CCOCC3)cc2)cc1,–,inactive: 10.9%
COc1ccccc1/C=N/NC(=O)C(=O)Nc1ccccc1OC(F)(F)C(F)F,–,inactive: -4.93%
COc1ccc2c(c1)c(C(C)=O)c(C)n2-c1ccccc1,"inconclusive: 11.2 µM [inhibitor, single point]",–
Cc1ccc(/C=N/NC(=O)Cn2nnc(N)n2)cc1,–,inactive: -34.6% [at 9.22 µM]
Cc1nc(-c2ccc(S(=O)(=O)N3CCN(C4c5ccccc5-c5ccccc54)CC3)s2)cs1,–,inactive: -19% [at 9.22 µM]
C=CCN1C(=O)C2(c3ccccc31)C1CCCC=C1C(C#N)=C(N)C2(C#N)C#N (stereo not drawn),–,inactive: 2.71%
N#C/C(=C/c1ccc(N2CCOCC2)o1)c1ccc(Br)cc1,"inconclusive: 35.5 µM [inhibitor, single point]",–
COc1cc(CC(=O)Nc2ccccc2N2CCCCC2)cc(OC)c1OC,–,inactive: -8.83%
CCCCCCC(=O)NC(Nc1ccc(S(N)(=O)=O)cc1)C(Cl)(Cl)Cl (stereo not drawn),"inconclusive: 35.5 µM [inhibitor, single point]",–
CC(C)COc1cccc(C(=O)NC(=S)NCc2cccnc2)c1,"inconclusive: 5.62 µM [inhibitor, single point]",–
Cc1cccc(C)c1-n1c(C)cc(/C=N/NC(=O)CSc2ncccn2)c1C,"inconclusive: 35.5 µM [inhibitor, single point]",–
CC1(C)C(=O)Nc2ccccc2N1C(=O)COC(=O)CCSc1ccccc1,"inconclusive: 35.5 µM [inhibitor, single point]",–
Cc1nnc(SCC(=O)Nc2ccc(-c3nc4ccccc4s3)cc2)s1,"inconclusive: 6.31 µM [inhibitor, single point]",–
COc1ccc(/C=C/C(=O)NC(=S)NNC(=O)Cc2cccs2)cc1OC,"inconclusive: 20 µM [inhibitor, single point]",–
Cc1cccc(N=c2c([N+](=O)[O-])nn(-c3ccc(Cl)cc3)n2O)c1,"inconclusive: 35.5 µM [inhibitor, single point]",–
O=C(O)CC1SC(=Nc2ccccc2)N(c2ccccc2)C1=O (stereo not drawn),"inconclusive: 5.62 µM [activator, single point]",–
